Experimental data from article PMC8677646.
These are yes or no findings as the source states them, for the method shown. For some assays here: Binding seen in cells or lysates may run through a third protein. Some results given as binding are weak or reduced against the parent protein; the word gives no strength. For some assays here: Sequences can lack the tags named with a protein.

Protein sequences, listed by entry. Tags and fused reporters are not part of them. Residues count along the entry.
UniProt Q8K1M6: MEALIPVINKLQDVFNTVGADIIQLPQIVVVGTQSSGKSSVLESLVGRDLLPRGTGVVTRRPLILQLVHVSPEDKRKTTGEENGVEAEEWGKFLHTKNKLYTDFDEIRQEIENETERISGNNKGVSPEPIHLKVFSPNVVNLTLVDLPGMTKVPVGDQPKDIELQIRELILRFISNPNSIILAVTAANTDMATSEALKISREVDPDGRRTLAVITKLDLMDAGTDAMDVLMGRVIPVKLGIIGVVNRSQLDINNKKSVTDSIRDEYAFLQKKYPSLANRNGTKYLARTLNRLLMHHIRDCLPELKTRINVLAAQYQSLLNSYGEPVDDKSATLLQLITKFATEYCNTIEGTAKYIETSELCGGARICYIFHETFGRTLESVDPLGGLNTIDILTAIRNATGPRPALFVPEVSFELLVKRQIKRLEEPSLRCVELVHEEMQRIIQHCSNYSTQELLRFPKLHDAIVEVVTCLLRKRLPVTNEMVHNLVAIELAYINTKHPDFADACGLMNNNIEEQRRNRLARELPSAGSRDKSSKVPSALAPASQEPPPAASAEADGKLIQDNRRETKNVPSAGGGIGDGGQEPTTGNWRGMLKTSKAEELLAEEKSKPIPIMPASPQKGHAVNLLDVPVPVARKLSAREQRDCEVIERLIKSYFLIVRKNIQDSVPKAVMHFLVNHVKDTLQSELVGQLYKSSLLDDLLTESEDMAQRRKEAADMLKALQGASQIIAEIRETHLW
UniProt Q3UMR5, residues 50-350: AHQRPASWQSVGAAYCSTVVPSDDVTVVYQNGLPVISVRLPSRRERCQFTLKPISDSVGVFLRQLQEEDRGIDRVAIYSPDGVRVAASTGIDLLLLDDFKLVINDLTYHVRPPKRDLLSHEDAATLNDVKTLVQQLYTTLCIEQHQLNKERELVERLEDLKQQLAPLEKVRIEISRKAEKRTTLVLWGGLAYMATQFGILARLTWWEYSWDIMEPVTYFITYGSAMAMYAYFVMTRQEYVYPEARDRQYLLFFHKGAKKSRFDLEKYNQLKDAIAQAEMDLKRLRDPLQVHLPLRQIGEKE
UniProt Q02248: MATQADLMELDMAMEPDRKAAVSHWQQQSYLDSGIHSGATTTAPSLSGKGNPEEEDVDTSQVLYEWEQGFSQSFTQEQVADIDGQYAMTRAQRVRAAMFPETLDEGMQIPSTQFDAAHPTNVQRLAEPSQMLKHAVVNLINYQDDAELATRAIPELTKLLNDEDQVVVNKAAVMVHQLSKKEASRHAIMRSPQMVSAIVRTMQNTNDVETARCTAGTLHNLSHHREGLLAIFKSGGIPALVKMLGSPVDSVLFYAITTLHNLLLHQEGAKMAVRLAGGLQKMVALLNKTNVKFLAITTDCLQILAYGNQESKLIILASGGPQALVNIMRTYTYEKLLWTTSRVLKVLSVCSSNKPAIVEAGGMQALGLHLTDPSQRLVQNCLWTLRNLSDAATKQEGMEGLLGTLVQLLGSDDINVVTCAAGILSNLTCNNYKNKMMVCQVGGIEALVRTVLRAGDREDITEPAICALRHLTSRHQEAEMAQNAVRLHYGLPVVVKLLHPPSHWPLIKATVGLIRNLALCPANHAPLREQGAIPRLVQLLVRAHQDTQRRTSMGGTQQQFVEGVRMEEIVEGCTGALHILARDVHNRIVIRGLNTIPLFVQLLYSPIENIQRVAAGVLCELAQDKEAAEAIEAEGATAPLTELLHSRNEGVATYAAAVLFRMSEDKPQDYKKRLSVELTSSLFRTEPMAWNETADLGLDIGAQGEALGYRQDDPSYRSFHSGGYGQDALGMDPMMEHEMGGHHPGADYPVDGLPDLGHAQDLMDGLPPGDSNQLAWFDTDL

Assays:
[1] = biological target: Flag-tagged HINT2 (histidine triad nucleotide-binding protein 2) (mouse) (UniProt Q9D0S9); assay: co-IP; CMEC lysate (Cell Lysis Buffer for IP) incubated with protein A/G-magnetic beads conjugated with anti-Flag antibody for 30 min at RT; blot for MCU; rabbit IgG as negative control
[2] = biological target: T1, Flag-tagged HINT2 mutant (Leu76, Phe78 and Asp80 mutated into Ala) (mouse) (UniProt Q9D0S9); assay: as above
T1 sequence: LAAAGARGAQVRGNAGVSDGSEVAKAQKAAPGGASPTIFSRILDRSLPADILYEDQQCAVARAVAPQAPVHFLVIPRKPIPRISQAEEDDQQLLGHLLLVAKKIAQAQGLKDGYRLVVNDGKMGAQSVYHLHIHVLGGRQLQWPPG

[3] = biological target: DRP1 (mouse (endogenous in CMECs)) (UniProt Q8K1M6); assay: native gel or EMSA; nondenatured CMEC lysate (Native Lysis Buffer, no heating) on polyacrylamide gels without denaturants, blot for DRP1; oligomers standardized to the monomer; OGD/R injury, ADV-NC or ADV-HINT2, Ru360
[4] = biological target: T2, VE-Cadherin (mouse (endogenous in left ventricle and CMECs)) (UniProt P55284); assay: co-IP; CMEC lysate; protein A/G-magnetic beads conjugated with anti-VE-Cadherin antibody, 30 min at RT; blot for β-Catenin; OGD/R injury, ADV-NC or ADV-HINT2, Ru360 or spermine
T2 sequence: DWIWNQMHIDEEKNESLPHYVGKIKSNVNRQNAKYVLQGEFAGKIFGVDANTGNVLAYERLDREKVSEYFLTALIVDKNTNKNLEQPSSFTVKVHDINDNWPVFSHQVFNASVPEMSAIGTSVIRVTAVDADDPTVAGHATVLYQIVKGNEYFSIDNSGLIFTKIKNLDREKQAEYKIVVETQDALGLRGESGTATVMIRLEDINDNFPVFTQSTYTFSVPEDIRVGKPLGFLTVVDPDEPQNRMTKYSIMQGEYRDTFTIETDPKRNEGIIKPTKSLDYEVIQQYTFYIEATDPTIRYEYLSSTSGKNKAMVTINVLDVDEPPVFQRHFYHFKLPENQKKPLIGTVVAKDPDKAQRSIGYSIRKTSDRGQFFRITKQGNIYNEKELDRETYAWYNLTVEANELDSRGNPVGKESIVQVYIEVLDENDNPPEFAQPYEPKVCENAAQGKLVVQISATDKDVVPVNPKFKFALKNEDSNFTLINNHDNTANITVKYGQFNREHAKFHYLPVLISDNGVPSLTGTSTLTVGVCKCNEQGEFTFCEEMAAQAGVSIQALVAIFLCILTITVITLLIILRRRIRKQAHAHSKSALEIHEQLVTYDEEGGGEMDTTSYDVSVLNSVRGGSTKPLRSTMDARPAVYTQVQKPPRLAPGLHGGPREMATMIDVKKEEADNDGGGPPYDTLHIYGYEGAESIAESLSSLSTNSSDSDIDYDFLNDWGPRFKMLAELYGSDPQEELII

[5] = biological target: T2, VE-Cadherin (mouse (endogenous in left ventricle and CMECs)); assay: co-IP; mouse left ventricle; protein A/G-magnetic beads conjugated with anti-VE-Cadherin antibody, 30 min at RT; blot for β-Catenin; sham or I/R injury, AAV9-NC or AAV9-HINT2, Ru360 or spermine

Substance: Mitochondrial calcium uniporter (MCU) (from UniProt Q3UMR5 50-350)
- binding [1]: binds
- binding [2]: no binding

Substance: DRP1 (from UniProt Q8K1M6 1-736)
- binding [3]: binds

Substance: β-Catenin (from UniProt Q02248 1-781)
- binding [4]: binds
- binding [5]: binds
